Experimental data published in PubChem BioAssay AID256 (DTP/NCI, 2004).
The list shows only some results of the screen, not a fair sample: it is rich in T/C values a quarter to a half above the control, in often repeated tests (any T/C) and in doses without a T/C. Further doses and runs are listed elsewhere. T/C is the treated group as % of the vehicle group. Some entries give survivors of the animals treated and no T/C: the source files T/C as zero there, which appears to mark a toxic dose or a test without result, not a measured value. Some survivor counts are full or nearly so, which does not show that the dose was tolerated: survival well below the control is almost never listed, so the zero probably covers shortened survival too. Survivors were counted at the toxicity check, usually on the fifth day, unless a day is given; later deaths do not show. Schedule codes are those of the source, read here as Q, the interval in days (D) or hours (H), X, the number of doses. Some structures stand for samples that the source files as different forms (salt, stereo form or complex); doses refer to the form tested. Brackets with × say how often a value occurs here. Some entries were tested several times; their values stand side by side, smallest first. For survival time, the PubChem record calls one and a half times the control and up active, and a quarter to a half above the control has no call in these data; cut-offs in other NCI protocols can differ. Some T/C values carry the count of animals alive at the toxicity check (mostly the fifth day); without a count, all were alive then.

System: CD2F1 mice, L1210 leukemia ip, survival T/C
Assay: NCI In Vivo Anticancer Drug Screen. Data for tumor model L1210 Leukemia (intraperitoneal) in CD2F1 (CDF1) mice
Details: higher T/C = longer survival
In short: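 Implant tumor; dose compound or vehicle; measure endpoint in both groups; report treated divided by control.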

COc1cc(NS(C)(=O)=O)ccc1Nc1c2ccccc2nc2ccccc12
T/C (T/C endpoint: mean survival time, dose: 128.0 mg/kg/injection, schedule: Q01DX001 (oral), vehicle: saline): 133 % of control | survivor count (T/C endpoint: mean survival time, dose: 128.0 mg/kg/injection, schedule: Q04DX003 (ip), vehicle: saline): 10 of 10 | T/C (T/C endpoint: mean survival time, dose: 128.0 mg/kg/injection, schedule: Q08DX002 (ip), vehicle: saline): 127 % of control | survivor count (T/C endpoint: mean survival time, dose: 200.0 mg/kg/injection, schedule: Q01DX009 (ip), vehicle: saline with Tween-80): 1 of 6 | survivor count (T/C endpoint: mean survival time, dose: 256.0 mg/kg/injection, schedule: Q01DX001 (ip), vehicle: saline): 3 of 10 | T/C (T/C endpoint: mean survival time, dose: 256.0 mg/kg/injection, schedule: Q01DX001 (oral), vehicle: saline): 133 % of control | survivor count (T/C endpoint: mean survival time, dose: 256.0 mg/kg/injection, schedule: Q08DX002 (ip), vehicle: saline): 8 of 10 | survivor count (T/C endpoint: mean survival time, dose: 400.0 mg/kg/injection, schedule: Q01DX009 (ip), vehicle: saline with Tween-80): 0 of 6 | survivor count (T/C endpoint: mean survival time, dose: 512.0 mg/kg/injection, schedule: Q01DX001 (oral), vehicle: saline): 5 of 10 | survivor count (T/C endpoint: mean survival time, dose: 1024.0 mg/kg/injection, schedule: Q01DX001 (oral), vehicle: saline): 6 of 10 | T/C (T/C endpoint: median survival time, dose: 0.06 mg/kg/injection, schedule: Q03HX024 (ip), vehicle: other): 125 % of control [9 of 10 alive] (2×) | T/C (T/C endpoint: median survival time, dose: 0.12 mg/kg/injection, schedule: Q03HX024 (ip), vehicle: other): 125 % of control (2×) | T/C (T/C endpoint: median survival time, dose: 0.25 mg/kg/injection, schedule: Q01DX009 (ip), vehicle: other): 125 % of control (2×) | T/C (T/C endpoint: median survival time, dose: 0.25 mg/kg/injection, schedule: Q01DX009 (ip), vehicle: saline with Tween-80): 128 % of control | T/C (T/C endpoint: median survival time, dose: 0.25 mg/kg/injection, schedule: Q03HX008 (ip), vehicle: other): 125 % of control (2×) | T/C (T/C endpoint: median survival time, dose: 0.25 mg/kg/injection, schedule: Q03HX024 (ip), vehicle: other): 137 % of control (2×) | T/C (T/C endpoint: median survival time, dose: 0.5 mg/kg/injection, schedule: Q01DX009 (ip), vehicle: other): 137 % of control (2×) | T/C (T/C endpoint: median survival time, dose: 0.5 mg/kg/injection, schedule: Q01DX009 (ip), vehicle: saline with Tween-80): 134 % of control | T/C (T/C endpoint: median survival time, dose: 0.5 mg/kg/injection, schedule: Q03HX008 (ip), vehicle: other): 137 % of control (2×) | T/C (T/C endpoint: median survival time, dose: 0.5 mg/kg/injection, schedule: Q03HX016 (ip), vehicle: other): 131 % of control (2×) | T/C (T/C endpoint: median survival time, dose: 0.5 mg/kg/injection, schedule: Q03HX024 (ip), vehicle: other): 143 % of control (2×) | T/C (T/C endpoint: median survival time, dose: 0.5 mg/kg/injection, schedule: Q04DX003 (ip), vehicle: other): 125 % of control (2×) | T/C (T/C endpoint: median survival time, dose: 1.0 mg/kg/injection, schedule: Q01DX009 (ip), vehicle: other, evaluated on day 30): 134 % of control | T/C (T/C endpoint: median survival time, dose: 1.0 mg/kg/injection, schedule: Q01DX009 (ip), vehicle: other, evaluated on day 60): 137 % of control (2×) | T/C (T/C endpoint: median survival time, dose: 1.0 mg/kg/injection, schedule: Q01DX009 (ip), vehicle: saline with Tween-80): 129 and 148 % of control | T/C (T/C endpoint: median survival time, dose: 1.0 mg/kg/injection, schedule: Q04DX003 (ip), vehicle: other): 131 % of control (2×) | T/C (T/C endpoint: median survival time, dose: 2.0 mg/kg/injection, schedule: Q01DX009 (ip), vehicle: saline with Tween-80): 134 % of control | T/C (T/C endpoint: median survival time, dose: 2.0 mg/kg/injection, schedule: Q01DX009 (sc), vehicle: other): 131 % of control (2×) | T/C (T/C endpoint: median survival time, dose: 2.0 mg/kg/injection, schedule: Q03HX024 (ip), vehicle: other): 137 % of control [9 of 10 alive] (2×) | T/C (T/C endpoint: median survival time, dose: 2.0 mg/kg/injection, schedule: Q04DX003 (ip), vehicle: other): 137 % of control (2×) | T/C (T/C endpoint: median survival time, dose: 2.0 mg/kg/injection, schedule: Q08DX002 (ip), vehicle: other): 125 % of control (2×) | T/C (T/C endpoint: median survival time, dose: 4.0 mg/kg/injection, schedule: Q01DX001 (ip), vehicle: other): 137 % of control (2×) | survivor count (T/C endpoint: median survival time, dose: 4.0 mg/kg/injection, schedule: Q03HX008 (ip), vehicle: other): 6 of 10 and 6 of 9 | survivor count (T/C endpoint: median survival time, dose: 4.0 mg/kg/injection, schedule: Q03HX016 (ip), vehicle: other): 5 of 10 (2×) | survivor count (T/C endpoint: median survival time, dose: 4.0 mg/kg/injection, schedule: Q03HX024 (ip), vehicle: other): 7 of 10 (2×) | T/C (T/C endpoint: median survival time, dose: 4.0 mg/kg/injection, schedule: Q08DX002 (ip), vehicle: other): 137 % of control (2×) | T/C (T/C endpoint: median survival time, dose: 4.32 mg/kg/injection, schedule: Q04DX003 (ip), vehicle: other): 139 % of control | T/C (T/C endpoint: median survival time, dose: 7.2 mg/kg/injection, schedule: Q04DX003 (ip), vehicle: other): 146 % of control | T/C (T/C endpoint: median survival time, dose: 8.0 mg/kg/injection, schedule: Q01DX001 (ip), vehicle: other): 143 % of control (2×) | survivor count (T/C endpoint: median survival time, dose: 8.0 mg/kg/injection, schedule: Q03HX008 (ip), vehicle: other): 0 of 10 (2×) | survivor count (T/C endpoint: median survival time, dose: 8.0 mg/kg/injection, schedule: Q03HX016 (ip), vehicle: other): 1 of 10 (2×) | T/C (T/C endpoint: median survival time, dose: 8.0 mg/kg/injection, schedule: Q04DX003 (ip), vehicle: other): 134 % of control | survivor count (T/C endpoint: median survival time, dose: 16.0 mg/kg/injection, schedule: Q01DX001 (ip), vehicle: other): 5 of 10 | T/C (T/C endpoint: median survival time, dose: 16.0 mg/kg/injection, schedule: Q01DX001 (oral), vehicle: other): 125 % of control (2×) | T/C (T/C endpoint: median survival time, dose: 16.0 mg/kg/injection, schedule: Q01DX001 (sc), vehicle: other): 125 % of control (2×) | survivor count (T/C endpoint: median survival time, dose: 16.0 mg/kg/injection, schedule: Q01DX009 (ip), vehicle: other): 8 of 10 (2×) | T/C (T/C endpoint: median survival time, dose: 16.0 mg/kg/injection, schedule: Q01DX009 (ip), vehicle: saline with Tween-80): 139 % of control | survivor count (T/C endpoint: median survival time, dose: 16.0 mg/kg/injection, schedule: Q03HX008 (ip), vehicle: other): 0 of 10 (2×) | survivor count (T/C endpoint: median survival time, dose: 16.0 mg/kg/injection, schedule: Q03HX016 (ip), vehicle: other): 0 of 10 (2×) | survivor count (T/C endpoint: median survival time, dose: 32.0 mg/kg/injection, schedule: Q01DX001 (ip), vehicle: other): 4 of 10 (2×) | T/C (T/C endpoint: median survival time, dose: 32.0 mg/kg/injection, schedule: Q01DX001 (oral), vehicle: other): 125 % of control (2×) | T/C (T/C endpoint: median survival time, dose: 32.0 mg/kg/injection, schedule: Q01DX001 (sc), vehicle: other): 137 % of control (2×) | survivor count (T/C endpoint: median survival time, dose: 32.0 mg/kg/injection, schedule: Q01DX009 (oral), vehicle: other): 9 of 10 (2×) | survivor count (T/C endpoint: median survival time, dose: 32.0 mg/kg/injection, schedule: Q08DX002 (ip), vehicle: other): 5 of 10 (2×) | survivor count (T/C endpoint: median survival time, dose: 64.0 mg/kg/injection, schedule: Q01DX001 (ip), vehicle: other): 0 of 10 (2×) | survivor count (T/C endpoint: median survival time, dose: 64.0 mg/kg/injection, schedule: Q01DX009 (oral), vehicle: other): 5 of 10 (2×) | survivor count (T/C endpoint: median survival time, dose: 64.0 mg/kg/injection, schedule: Q08DX002 (ip), vehicle: other): 1 of 10 (2×) | survivor count (T/C endpoint: median survival time, dose: 128.0 mg/kg/injection, schedule: Q01DX001 (ip), vehicle: other): 0 of 10 (2×) | survivor count (T/C endpoint: median survival time, dose: 128.0 mg/kg/injection, schedule: Q01DX001 (oral), vehicle: other): 6 of 10 (2×) | survivor count (T/C endpoint: median survival time, dose: 128.0 mg/kg/injection, schedule: Q08DX002 (ip), vehicle: other): 0 of 10 (2×) | survivor count (T/C endpoint: median survival time, dose: 256.0 mg/kg/injection, schedule: Q01DX001 (oral), vehicle: other): 1 of 10 (2×) | survivor count (T/C endpoint: median survival time, dose: 512.0 mg/kg/injection, schedule: Q01DX001 (oral), vehicle: other): 0 of 10 (2×)
